Laboratory results: article doi:10.64898/2025.12.19.695442
Results are given in words; binding and its absence hold for the method and conditions named. Sequences can lack the tags named with a protein.

Sequences of proteins named here, by UniProt entry; tags and fusion partners are left off.
UniProt O94972: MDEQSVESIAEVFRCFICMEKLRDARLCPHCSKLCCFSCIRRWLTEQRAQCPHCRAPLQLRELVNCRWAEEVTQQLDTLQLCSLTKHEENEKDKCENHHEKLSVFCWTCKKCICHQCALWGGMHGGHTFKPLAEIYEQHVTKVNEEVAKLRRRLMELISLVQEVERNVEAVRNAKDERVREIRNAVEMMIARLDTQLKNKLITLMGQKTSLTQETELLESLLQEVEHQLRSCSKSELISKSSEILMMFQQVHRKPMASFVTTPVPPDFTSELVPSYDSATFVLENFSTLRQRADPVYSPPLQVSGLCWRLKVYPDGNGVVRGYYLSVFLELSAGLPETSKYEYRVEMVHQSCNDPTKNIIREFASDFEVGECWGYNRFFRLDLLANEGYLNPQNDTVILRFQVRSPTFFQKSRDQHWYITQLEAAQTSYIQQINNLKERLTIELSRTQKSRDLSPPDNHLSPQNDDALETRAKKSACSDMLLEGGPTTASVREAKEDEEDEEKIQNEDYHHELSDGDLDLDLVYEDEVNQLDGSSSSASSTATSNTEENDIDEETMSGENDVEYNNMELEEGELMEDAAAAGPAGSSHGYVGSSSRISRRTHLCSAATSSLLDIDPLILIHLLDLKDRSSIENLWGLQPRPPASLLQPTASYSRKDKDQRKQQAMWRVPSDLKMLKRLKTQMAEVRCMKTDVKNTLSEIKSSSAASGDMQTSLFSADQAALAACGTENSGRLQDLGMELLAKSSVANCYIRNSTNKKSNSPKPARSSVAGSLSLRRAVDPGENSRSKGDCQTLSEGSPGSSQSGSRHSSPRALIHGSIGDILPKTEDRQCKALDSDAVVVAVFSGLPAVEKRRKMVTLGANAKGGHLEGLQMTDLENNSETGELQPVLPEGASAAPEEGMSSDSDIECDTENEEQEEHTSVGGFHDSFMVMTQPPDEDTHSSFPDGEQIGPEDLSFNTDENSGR

Target: TRIM37 (UniProt O94972)
Assay: pull-down; TRIM37 (1 ug) held on Protein A Dynabeads conjugated with TRIM37 antibody; purified GFP-tagged Cep192 fragments (1 uM), 1 hr at 37°C; washes 150 mM KCl, last wash 500 mM KCl; Western blot against GFP; both purified

B1: GFP-tagged Cep192 C-terminal truncation lacking ASH8 (domain or fragment, UniProt Q8TEP8-3 2070-2437)
chain: REFLQPSSKASLESTSDLGASGKHGGNVSLDVLPVKGPQGSPLLSRAARPPLDQLASEEPWTVLPEHLILVAPSPCDMAKTGRFQIVNNSVRLLRFELCWPAHCLTVTPQHGCVAPESKLQILVSPNSSLSTKQSMFPWSGLIYIHCDDGQKKIVKVQIREDLTQVELLTRLTSKPFGILSPVSEPSVSHLVKPMTKPPSTKVEIRNKSITFPTTEPGETSESCLELENHGTTDVKWHLSSLAPPYVKGVDESGDVFRATYAAFRCSPISGLLESHGIQKVSITFLPRGRGDYAQFWDVECHPLKEPHMKHTLRFQLSGQSIEAENEPENACLSTDSLIKIDHLVKPRRQAVSEASARIPEQLDVTAR
binding: no binding (tested: 1 μM Cep192 construct, 1 μg TRIM37)
